Results are given in words; binding and its absence hold for the method and conditions named. In cells and extracts the contact can be indirect. These calls come from enrichment with a bait or labelling near it, and not all partners need be listed. Tags and fused reporters may be left off the sequences shown.
Biological target: T1, TMEM132A-SBP-CBP-Flag (from pSCDTG(P)-T132A, TMEM132A-SBP-CBP-Flag-T2A-turbo GFP) (mouse) (UniProt Q922P8)
T1 sequence: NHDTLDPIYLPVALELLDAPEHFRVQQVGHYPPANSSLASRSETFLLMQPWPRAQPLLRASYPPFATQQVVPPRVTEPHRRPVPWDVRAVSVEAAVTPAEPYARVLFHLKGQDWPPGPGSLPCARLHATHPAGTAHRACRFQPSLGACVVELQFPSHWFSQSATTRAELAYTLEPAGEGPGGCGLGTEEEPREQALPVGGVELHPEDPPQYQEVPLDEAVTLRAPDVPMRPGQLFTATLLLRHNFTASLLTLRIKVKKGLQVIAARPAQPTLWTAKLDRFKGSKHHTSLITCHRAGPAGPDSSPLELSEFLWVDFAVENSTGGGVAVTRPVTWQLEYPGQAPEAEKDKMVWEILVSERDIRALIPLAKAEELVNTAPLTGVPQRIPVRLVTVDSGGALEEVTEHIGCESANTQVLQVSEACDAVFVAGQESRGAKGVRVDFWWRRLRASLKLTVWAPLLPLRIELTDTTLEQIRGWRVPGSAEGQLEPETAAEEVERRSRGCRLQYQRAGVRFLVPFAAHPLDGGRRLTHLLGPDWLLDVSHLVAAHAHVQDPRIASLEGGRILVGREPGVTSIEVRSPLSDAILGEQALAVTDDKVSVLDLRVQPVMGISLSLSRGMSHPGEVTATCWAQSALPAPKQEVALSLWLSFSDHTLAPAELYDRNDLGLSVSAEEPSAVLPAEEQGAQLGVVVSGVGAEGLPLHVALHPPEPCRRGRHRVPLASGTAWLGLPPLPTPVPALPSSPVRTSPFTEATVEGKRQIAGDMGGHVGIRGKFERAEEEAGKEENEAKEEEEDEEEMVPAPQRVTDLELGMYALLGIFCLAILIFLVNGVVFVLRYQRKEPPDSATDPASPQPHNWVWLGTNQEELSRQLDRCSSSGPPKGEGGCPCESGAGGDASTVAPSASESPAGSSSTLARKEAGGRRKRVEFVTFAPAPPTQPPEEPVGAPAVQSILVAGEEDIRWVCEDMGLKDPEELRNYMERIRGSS
Assay: affinity purification with mass spectrometry; HEK 293T cells with stable integration of TMEM132A-SBP-CBP-Flag; tandem affinity purification (InterPlay TAP kit), FASP, mass spectrometry; control vector pSCDTG(P)

B1: endogenous WLS of HEK 293T cells (protein, UniProt Q5T9L3 1-541)
chain: MAGAIIENMSTKKLCIVGGILLVFQIIAFLVGGLIAPGPTTAVSYMSVKCVDARKNHHKTKWFVPWGPNHCDKIRDIEEAIPREIEANDIVFSVHIPLPHMEMSPWFQFMLFILQLDIAFKLNNQIRENAEVSMDVSLAYRDDAFAEWTEMAHERVPRKLKCTFTSPKTPEHEGRYYECDVLPFMEIGSVAHKFYLLNIRLPVNEKKKINVGIGEIKDIRLVGIHQNGGFTKVWFAMKTFLTPSIFIIMVWYWRRITMMSRPPVLLEKVIFALGISMTFINIPVEWFSIGFDWTWMLLFGDIRQGIFYAMLLSFWIIFCGEHMMDQHERNHIAGYWKQVGPIAVGSFCLFIFDMCERGVQLTNPFYSIWTTDIGTELAMAFIIVAGICLCLYFLFLCFMVFQVFRNISGKQSSLPAMSKVRRLHYEGLIFRFKFLMLITLACAAMTVIFFIVSQVTEGHWKWGGVTVQVNSAFFTGIYGMWNLYVFALMFLYAPSHKNYGEDQSNGDLGVHSGEELQLTTTITHVDGPTEIYKLTRKEAQE
How did the binding turn out when B1 was run?
The binding was “binds”.

Reference: article PMC7726220
